We go through one molecule from paper PMC8204981, “Helicobacter pylori GmhB enzyme involved in ADP-heptose biosynthesis pathway is essential for lipopolysaccharide biosynthesis and bacterial virulence” (Virulence, 2021).

The target of assay [1] is HP0860 protein (D-glycero-D-manno-heptose-1,7-bisphosphate phosphatase, GmhB) of Helicobacter pylori 26,695, recombinant with a 6 × His tag (Helicobacter pylori 26,695) (UniProt O25531). Put plainly: AUC; sedimentation velocity ultracentrifugation, Beckman Optima XL-A Analytical Ultracentrifuge; both purified.
Assay [2] has the same target. The assay can be described thus: SEC; gel filtration under non-denaturing conditions, HiLoad 16/600 Superdex 200 pg column, AKTA FPLC, 4°C, 20 mM HEPES (pH 8.0), 10 mM MgCl2, 10 mM KCl; native molecular weight against protein standards; both purified. On the technique in general: Size exclusion chromatography separates by hydrodynamic size, large species first.

No constants are given. Whether binding was seen depends on the method and setting. Where a sequence is shown, tags or fusion partners need not be part of it.

B1: HP0860 protein (D-glycero-D-manno-heptose-1,7-bisphosphate phosphatase, GmhB) of Helicobacter pylori 26,695, recombinant with a 6 × His tag (enzyme, UniProt O25531 1-173)
chain: MNTNKALFLDRDGIINIDKGYVSQKEDFEFQKGIFELLKHAKSLGYKLLLITNQSGINRGYYTLKDFEQLTQYLQESLFKELGFNLDGIYFCRHAPEENCACRKPKPSLILQAAKEHQICLEQSFMIGDKESDMLAGLNAKVKNNLLLIQNPLKTPHSWIQCKDFKEMIDLIK
Take B1: the binding entry in assay [1] and in assay [2] was “no binding” in each case.
